Here are results for three substances from article doi:10.1101/2020.10.24.353268.

The chains behind the UniProt entries cited, without tags or fusion partners. Residues count along the entry.
UniProt Q14451, whole entry: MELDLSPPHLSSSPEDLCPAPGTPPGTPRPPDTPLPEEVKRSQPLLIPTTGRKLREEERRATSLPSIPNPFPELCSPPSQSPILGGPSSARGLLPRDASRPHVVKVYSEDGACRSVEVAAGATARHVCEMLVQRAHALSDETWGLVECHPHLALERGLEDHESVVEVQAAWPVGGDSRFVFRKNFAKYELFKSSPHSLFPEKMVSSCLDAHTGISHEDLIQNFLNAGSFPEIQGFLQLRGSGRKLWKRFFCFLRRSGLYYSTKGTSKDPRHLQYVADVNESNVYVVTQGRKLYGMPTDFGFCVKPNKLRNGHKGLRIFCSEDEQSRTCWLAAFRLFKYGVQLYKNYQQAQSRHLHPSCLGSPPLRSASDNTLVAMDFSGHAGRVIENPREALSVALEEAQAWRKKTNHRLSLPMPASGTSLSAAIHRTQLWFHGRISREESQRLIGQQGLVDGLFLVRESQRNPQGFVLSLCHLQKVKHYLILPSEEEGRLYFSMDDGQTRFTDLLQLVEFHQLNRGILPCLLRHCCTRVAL
UniProt P54764, 20-986: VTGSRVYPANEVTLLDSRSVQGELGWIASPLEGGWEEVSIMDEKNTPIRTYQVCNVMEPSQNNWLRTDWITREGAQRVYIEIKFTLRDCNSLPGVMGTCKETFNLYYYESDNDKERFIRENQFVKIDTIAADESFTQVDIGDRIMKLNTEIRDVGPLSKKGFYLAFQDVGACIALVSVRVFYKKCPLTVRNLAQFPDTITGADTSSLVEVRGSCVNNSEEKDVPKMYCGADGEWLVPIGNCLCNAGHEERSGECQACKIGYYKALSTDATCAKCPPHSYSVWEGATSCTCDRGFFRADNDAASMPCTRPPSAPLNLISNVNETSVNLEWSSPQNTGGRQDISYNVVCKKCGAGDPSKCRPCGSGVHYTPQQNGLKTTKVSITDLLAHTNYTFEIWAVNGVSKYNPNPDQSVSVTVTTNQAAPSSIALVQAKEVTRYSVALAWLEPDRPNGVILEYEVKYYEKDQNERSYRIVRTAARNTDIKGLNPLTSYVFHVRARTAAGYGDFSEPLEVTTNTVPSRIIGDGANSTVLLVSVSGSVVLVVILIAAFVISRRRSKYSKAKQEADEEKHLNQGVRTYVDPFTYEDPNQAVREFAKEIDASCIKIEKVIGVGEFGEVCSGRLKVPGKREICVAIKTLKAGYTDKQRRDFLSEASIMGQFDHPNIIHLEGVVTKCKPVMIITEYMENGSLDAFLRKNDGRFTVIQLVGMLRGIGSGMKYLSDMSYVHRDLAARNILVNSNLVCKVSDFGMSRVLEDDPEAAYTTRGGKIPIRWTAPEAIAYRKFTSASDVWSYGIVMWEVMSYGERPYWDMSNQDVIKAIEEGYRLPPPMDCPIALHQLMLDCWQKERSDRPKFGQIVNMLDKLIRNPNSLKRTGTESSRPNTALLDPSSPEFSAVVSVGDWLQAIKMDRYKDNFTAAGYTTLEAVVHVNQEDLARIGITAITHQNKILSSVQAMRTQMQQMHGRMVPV
UniProt P40763, whole entry: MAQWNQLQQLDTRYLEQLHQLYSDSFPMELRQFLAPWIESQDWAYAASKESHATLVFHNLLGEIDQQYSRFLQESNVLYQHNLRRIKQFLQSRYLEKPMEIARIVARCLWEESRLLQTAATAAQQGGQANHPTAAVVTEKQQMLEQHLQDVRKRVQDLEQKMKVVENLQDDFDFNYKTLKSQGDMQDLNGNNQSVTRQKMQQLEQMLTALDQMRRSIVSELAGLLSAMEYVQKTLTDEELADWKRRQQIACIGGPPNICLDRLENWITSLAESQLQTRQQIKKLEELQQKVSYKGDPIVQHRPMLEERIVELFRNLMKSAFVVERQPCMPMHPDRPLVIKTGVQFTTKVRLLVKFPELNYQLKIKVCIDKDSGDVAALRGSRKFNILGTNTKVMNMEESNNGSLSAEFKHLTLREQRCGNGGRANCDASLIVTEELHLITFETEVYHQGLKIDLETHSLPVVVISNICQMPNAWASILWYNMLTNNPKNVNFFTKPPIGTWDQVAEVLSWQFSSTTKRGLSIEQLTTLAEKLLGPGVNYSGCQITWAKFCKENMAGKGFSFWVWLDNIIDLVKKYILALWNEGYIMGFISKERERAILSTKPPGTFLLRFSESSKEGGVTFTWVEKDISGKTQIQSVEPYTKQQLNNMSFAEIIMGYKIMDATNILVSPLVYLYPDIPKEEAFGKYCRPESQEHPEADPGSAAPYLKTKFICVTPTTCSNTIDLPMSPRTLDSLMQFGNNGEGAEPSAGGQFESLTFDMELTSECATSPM

Common to all, as to assay: co-IP
The target in test [1] is EGFR (human (endogenous in A549)) (UniProt P00533).
For test [2], the target named is HA-tagged Grb7 (growth factor receptor bound protein-7) (UniProt Q14451).
For test [3] the target is unchanged. The source holds these as a separate data set.
Test [4] has the same target. This is another data set of the same source.

Where two headings read alike, the source gives them in different places. Results are given in words; binding and its absence hold for the method and conditions named. Binding seen in cells or lysates may run through a third protein. Some binding calls cover weakened binding; strength is not graded here.

As for “EphA4 (from UniProt P54764 20-986) (receptor)”, in test [1], the binding entry is “binds”.

Turning to “Flag-tagged STAT3 (from UniProt P40763 1-770)”, the binding entry in test [2] is “binds”.

As to STAT3 (from UniProt P40763 1-770), the binding entry in test [3], in test [4] and in test [2] was “binds” each time.
